Laboratory results reported in patent publication US20130064825A1.

Biological target: cynomolgus monkey PCSK9, V5-6xHIS tagged (cynomolgus monkey)
Test: KinExA solution equilibrium titration; title: 10 or 100pM 16F12 + (0.05pM ~ 5nM) cPCSK9; free antibody measured

- binding: binds
B1: 16F12, anti-PCSK9 huIgG4 (antibody, V domains shown)
VH: QVHLVESGGGVVQPGRSLRLSCAASGFTFNSFGMHWVRQAPGKGLEWVALIWSDGSDEYYADSVKGRFTISRDNSKNTLYLQMNSLRAEDTAVYYCARAIAALYYYYGMDVWGQGTTVTVSS
VL: QSVLTQPPSVSAAPGQKVTISCSGSSSNIGNNFVSWYQQLPGTAPKLLIYDYNKRPSGIPDRFSGSKSGTSATLGITGLQTGDEADYYCGTWDSSLSAYVFGTGTRVTVLQ

Results are given in words; binding and its absence hold for the method and conditions named. Binding calls can cover weak binding; strength is not graded here.
